Source: PMC11256664
Results are given in words; binding and its absence hold for the method and conditions named. In cells and extracts the contact can be indirect. Some binding calls cover weakened binding; strength is not graded here.

Protein sequences, listed by entry. Tags and fused reporters are not part of them.
UniProt P49023: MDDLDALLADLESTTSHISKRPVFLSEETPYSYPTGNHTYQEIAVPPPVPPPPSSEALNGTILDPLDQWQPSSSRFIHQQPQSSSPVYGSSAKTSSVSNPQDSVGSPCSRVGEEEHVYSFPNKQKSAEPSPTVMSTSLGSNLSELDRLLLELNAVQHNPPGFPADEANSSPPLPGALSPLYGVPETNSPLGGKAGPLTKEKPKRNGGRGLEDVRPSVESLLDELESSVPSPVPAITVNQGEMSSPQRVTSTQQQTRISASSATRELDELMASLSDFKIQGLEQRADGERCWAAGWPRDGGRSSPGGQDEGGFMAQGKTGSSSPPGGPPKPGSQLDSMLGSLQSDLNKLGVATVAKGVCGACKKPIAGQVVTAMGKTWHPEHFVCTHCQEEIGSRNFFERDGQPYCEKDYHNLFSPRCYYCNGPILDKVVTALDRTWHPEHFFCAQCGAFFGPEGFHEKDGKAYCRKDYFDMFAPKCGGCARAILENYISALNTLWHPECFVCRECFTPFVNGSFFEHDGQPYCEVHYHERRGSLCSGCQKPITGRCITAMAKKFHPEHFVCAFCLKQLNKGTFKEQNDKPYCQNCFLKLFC

Target: paxillin (human (endogenous in hTERT-MSCs)) (UniProt P49023)
Assay: co-IP; hTERT-MSC lysate (Pierce IP Lysis Buffer with protease/phosphatase inhibitors) incubated overnight at 4 °C with magnetic beads and 1 µg paxillin antibody; eluates blotted with paxillin and PTPRK antibodies

B1: protein tyrosine phosphatase receptor type kappa (protein, UniProt Q15262 27-1439)
chain: AQGQFSAGGCTFDDGPGACDYHQDLYDDFEWVHVSAQEPHYLPPEMPQGSYMIVDSSDHDPGEKARLQLPTMKENDTHCIDFSYLLYSQKGLNPGTLNILVRVNKGPLANPIWNVTGFTGRDWLRAELAVSTFWPNEYQVIFEAEVSGGRSGYIAIDDIQVLSYPCDKSPHFLRLGDVEVNAGQNATFQCIATGRDAVHNKLWLQRRNGEDIPVAQTKNINHRRFAASFRLQEVTKTDQDLYRCVTQSERGSGVSNFAQLIVREPPRPIAPPQLLGVGPTYLLIQLNANSIIGDGPIILKEVEYRMTSGSWTETHAVNAPTYKLWHLDPDTEYEIRVLLTRPGEGGTGLPGPPLITRTKCAEPMRTPKTLKIAEIQARRIAVDWESLGYNITRCHTFNVTICYHYFRGHNESKADCLDMDPKAPQHVVNHLPPYTNVSLKMILTNPEGRKESEETIIQTDEDVPGPVPVKSLQGTSFENKIFLNWKEPLDPNGIITQYEISYSSIRSFDPAVPVAGPPQTVSNLWNSTHHVFMHLHPGTTYQFFIRASTVKGFGPATAINVTTNISAPTLPDYEGVDASLNETATTITVLLRPAQAKGAPISAYQIVVEELHPHRTKREAGAMECYQVPVTYQNAMSGGAPYYFAAELPPGNLPEPAPFTVGDNRTYQGFWNPPLAPRKGYNIYFQAMSSVEKETKTQCVRIATKAATEEPEVIPDPAKQTDRVVKIAGISAGILVFILLLLVVILIVKKSKLAKKRKDAMGNTRQEMTHMVNAMDRSYADQSTLHAEDPLSITFMDQHNFSPRYENHSATAESSRLLDVPRYLCEGTESPYQTGQLHPAIRVADLLQHINLMKTSDSYGFKEEYESFFEGQSASWDVAKKDQNRAKNRYGNIIAYDHSRVILQPVEDDPSSDYINANYIDGYQRPSHYIATQGPVHETVYDFWRMIWQEQSACIVMVTNLVEVGRVKCYKYWPDDTEVYGDFKVTCVEMEPLAEYVVRTFTLERRGYNEIREVKQFHFTGWPDHGVPYHATGLLSFIRRVKLSNPPSAGPIVVHCSAGAGRTGCYIVIDIMLDMAEREGVVDIYNCVKALRSRRINMVQTEEQYIFIHDAILEACLCGETAIPVCEFKAAYFDMIRIDSQTNSSHLKDEFQTLNSVTPRLQAEDCSIACLPRNHDKNRFMDMLPPDRCLPFLITIDGESSNYINAALMDSYRQPAAFIVTQYPLPNTVKDFWRLVYDYGCTSIVMLNEVDLSQGCPQYWPEEGMLRYGPIQVECMSCSMDCDVINRIFRICNLTRPQEGYLMVQQFQYLGWASHREVPGSKRSFLKLILQVEKWQEECEEGEGRTIIHCLNGGGRSGMFCAIGIVVEMVKRQNVVDVFHAVKTLRNSKPNMVEAPEQYRFCYDVALEYLESS
binding: binds
